The exact form of at least one protein or probe is not confirmed. For part of these data: At least one result comes from cells or an extract, where the contact may be indirect.
Key:
[1] = target: EGFR (on pancreatic cancer cells) (UniProt P00533); test: cell binding (method not given); details: EGFR-expressing pancreatic cells; 2'-fluoro pyrimidines; tissue: selection buffer, 2% BSA +/- 100 µg/mL yeast tRNA block, 1 h on ice; aptamers denatured at 95 °C 3 min then ice 5 min; buffer composition; protein on the cell surface; synthetic backbone; cited from earlier work
[2] = target: EGFR, recombinant human (human) (UniProt P00533); test: filter binding; details: 2'-fluoro pyrimidines; tissue: selection buffer, 2% BSA +/- 100 µg/mL yeast tRNA block, 1 h on ice; aptamers denatured at 95 °C 3 min then ice 5 min; buffer composition; recombinant protein; label: 32P; synthetic backbone
[3] = target: EGFR (in human FFPE glioblastoma sections) (human) (UniProt P00533); test: aptahistofluorescence; details: 2'-fluoro pyrimidines (2'F-RNA), tissue: selection buffer, 2% BSA +/- 100 µg/mL yeast tRNA block, 1 h on ice, aptamers denatured at 95 °C 3 min then ice 5 min, buffer composition, native protein, synthetic backbone
[4] = target: EGFR (on U87MG EGFR WT glioblastoma cells) (UniProt P00533); test: confocal fluorescence imaging; details: 100 nM aptamer, 30 min, not detected on LN319 (no EGFR); 2'-fluoro pyrimidines (2'F-RNA); tissue: selection buffer, 2% BSA +/- 100 µg/mL yeast tRNA block, 1 h on ice; aptamers denatured at 95 °C 3 min then ice 5 min; buffer composition; protein on the cell surface; label: 5'-Cy5; synthetic backbone
[5] = target: EGFR (on MDA-MB-231 breast cancer cells) (UniProt P00533); test: confocal fluorescence imaging; details: 100 nM aptamer, lower signal than U87 EGFR WT, tracks EGFR level, not detected on MCF7 (no EGFR); 2'-fluoro pyrimidines (2'F-RNA); tissue: selection buffer, 2% BSA +/- 100 µg/mL yeast tRNA block, 1 h on ice; aptamers denatured at 95 °C 3 min then ice 5 min; buffer composition; protein on the cell surface; label: 5'-Cy5; synthetic backbone

**Q.** Does “GGACGGAUUUAAUCGCCGUAGAAAAGCAUGUCAAAGCCGGAACCGUCC [E07 (cited, label not stated)]” bind [1]?
**A.** binds

**Q.** Which Kd [2] does the source give for “GGACGGAUUUAAUCGCCGUAGAAAAGCAUGUCAAAGCCGGAACCGUCC [E07, 32P-labeled (cited)]” here?
**A.** 2.4 nM

**Q.** Does “GGACGGAUUUAAUCGCCGUAGAAAAGCAUGUCAAAGCCGGAACCGUCC [E07-Al488]” bind ([3]; GBM sections, multiplexed with H02-Cy5, non-tumoral epileptic brain not labeled, label: 5'-Alexa 488 (Table S1 sequence cell prints Al568))?
**A.** binds

**Q.** Does “GGACGGAUUUAAUCGCCGUAGAAAAGCAUGUCAAAGCCGGAACCGUCC [E07-Cy5]” bind ([3]; FFPE GBM, 500 nM aptamer, label: 5'-Cy5)?
**A.** binds

**Q.** Does “GGACGGAUUUAAUCGCCGUAGAAAAGCAUGUCAAAGCCGGAACCGUCC [E07-Cy5]” bind [4]?
**A.** binds

**Q.** Does “GGACGGAUUUAAUCGCCGUAGAAAAGCAUGUCAAAGCCGGAACCGUCC [E07-Cy5]” bind [5]?
**A.** binds

Reference: article PMC9609998
